# In the supplement of paper PMC12067093, “Discovery and optimisation of a covalent ligand for TRIM25 and its application to targeted protein ubiquitination” (Chemical Science, 2025):
# Amino acid sequences for entries named in this document (tags omitted). A change or cut given only in a name is not applied to a line headed by its entry.
# UniProt Q9BXP5: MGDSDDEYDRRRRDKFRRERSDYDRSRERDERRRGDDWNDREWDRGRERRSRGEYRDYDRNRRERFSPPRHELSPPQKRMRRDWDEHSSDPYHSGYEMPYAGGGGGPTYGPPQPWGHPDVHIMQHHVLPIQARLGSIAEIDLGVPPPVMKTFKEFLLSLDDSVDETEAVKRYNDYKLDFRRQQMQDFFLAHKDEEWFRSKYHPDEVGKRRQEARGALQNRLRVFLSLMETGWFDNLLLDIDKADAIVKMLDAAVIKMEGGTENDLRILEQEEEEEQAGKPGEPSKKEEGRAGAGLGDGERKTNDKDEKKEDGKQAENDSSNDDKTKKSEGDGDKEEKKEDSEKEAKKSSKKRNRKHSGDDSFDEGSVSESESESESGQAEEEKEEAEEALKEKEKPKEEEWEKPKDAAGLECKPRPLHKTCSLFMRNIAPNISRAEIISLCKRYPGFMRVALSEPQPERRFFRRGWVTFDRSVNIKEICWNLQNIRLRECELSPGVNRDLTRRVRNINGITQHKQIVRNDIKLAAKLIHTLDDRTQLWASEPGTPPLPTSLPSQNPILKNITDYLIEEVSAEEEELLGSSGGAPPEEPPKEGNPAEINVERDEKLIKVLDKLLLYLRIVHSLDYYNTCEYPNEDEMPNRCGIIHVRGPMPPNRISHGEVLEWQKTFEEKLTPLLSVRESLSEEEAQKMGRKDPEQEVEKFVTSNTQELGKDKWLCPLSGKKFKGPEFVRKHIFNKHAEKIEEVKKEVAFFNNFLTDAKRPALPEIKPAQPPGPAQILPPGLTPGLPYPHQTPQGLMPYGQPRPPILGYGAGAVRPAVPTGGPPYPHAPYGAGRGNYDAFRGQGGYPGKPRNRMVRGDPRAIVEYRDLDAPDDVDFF
# UniProt Q92797: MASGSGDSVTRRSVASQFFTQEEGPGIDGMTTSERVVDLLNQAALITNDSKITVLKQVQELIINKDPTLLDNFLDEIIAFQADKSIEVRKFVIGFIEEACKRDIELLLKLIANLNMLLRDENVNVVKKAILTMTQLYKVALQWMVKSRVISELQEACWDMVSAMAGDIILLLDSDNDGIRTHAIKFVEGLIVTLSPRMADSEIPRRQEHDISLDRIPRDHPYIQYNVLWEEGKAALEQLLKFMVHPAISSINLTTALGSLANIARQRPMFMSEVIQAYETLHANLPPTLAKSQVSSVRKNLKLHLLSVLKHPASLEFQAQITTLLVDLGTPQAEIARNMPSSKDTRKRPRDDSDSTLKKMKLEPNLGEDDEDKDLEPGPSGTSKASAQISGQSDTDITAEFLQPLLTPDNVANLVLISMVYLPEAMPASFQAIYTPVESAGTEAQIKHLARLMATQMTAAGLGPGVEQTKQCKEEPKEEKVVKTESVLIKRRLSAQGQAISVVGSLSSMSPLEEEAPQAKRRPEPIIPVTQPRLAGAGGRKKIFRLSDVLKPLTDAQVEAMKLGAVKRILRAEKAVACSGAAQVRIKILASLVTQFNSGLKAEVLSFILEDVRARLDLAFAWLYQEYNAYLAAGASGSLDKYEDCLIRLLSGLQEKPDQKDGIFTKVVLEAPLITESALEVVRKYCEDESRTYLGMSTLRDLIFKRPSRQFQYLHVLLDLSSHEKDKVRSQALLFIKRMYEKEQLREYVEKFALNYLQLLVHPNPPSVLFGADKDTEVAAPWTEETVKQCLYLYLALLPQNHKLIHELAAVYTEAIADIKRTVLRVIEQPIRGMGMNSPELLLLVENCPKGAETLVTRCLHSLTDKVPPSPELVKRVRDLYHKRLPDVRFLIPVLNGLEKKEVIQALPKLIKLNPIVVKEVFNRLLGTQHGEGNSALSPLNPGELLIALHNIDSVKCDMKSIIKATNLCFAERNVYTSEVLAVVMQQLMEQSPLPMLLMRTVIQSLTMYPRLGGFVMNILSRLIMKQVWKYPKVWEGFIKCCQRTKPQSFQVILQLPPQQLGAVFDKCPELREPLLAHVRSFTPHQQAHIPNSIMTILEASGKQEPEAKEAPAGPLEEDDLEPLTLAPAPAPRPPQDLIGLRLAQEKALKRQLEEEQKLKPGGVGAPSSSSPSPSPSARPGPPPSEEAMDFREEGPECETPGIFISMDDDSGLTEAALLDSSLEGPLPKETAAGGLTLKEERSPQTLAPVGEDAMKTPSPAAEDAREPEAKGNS
# UniProt O94768: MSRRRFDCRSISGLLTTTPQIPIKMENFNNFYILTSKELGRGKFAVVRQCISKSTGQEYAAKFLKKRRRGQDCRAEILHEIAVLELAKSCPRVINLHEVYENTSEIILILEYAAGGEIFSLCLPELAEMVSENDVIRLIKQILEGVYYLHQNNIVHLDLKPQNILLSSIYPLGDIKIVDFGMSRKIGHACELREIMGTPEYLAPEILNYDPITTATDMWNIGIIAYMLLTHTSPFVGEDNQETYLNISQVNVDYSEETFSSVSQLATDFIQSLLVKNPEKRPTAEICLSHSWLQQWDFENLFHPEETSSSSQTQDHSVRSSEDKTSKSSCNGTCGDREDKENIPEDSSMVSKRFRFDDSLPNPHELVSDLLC
# UniProt P52630: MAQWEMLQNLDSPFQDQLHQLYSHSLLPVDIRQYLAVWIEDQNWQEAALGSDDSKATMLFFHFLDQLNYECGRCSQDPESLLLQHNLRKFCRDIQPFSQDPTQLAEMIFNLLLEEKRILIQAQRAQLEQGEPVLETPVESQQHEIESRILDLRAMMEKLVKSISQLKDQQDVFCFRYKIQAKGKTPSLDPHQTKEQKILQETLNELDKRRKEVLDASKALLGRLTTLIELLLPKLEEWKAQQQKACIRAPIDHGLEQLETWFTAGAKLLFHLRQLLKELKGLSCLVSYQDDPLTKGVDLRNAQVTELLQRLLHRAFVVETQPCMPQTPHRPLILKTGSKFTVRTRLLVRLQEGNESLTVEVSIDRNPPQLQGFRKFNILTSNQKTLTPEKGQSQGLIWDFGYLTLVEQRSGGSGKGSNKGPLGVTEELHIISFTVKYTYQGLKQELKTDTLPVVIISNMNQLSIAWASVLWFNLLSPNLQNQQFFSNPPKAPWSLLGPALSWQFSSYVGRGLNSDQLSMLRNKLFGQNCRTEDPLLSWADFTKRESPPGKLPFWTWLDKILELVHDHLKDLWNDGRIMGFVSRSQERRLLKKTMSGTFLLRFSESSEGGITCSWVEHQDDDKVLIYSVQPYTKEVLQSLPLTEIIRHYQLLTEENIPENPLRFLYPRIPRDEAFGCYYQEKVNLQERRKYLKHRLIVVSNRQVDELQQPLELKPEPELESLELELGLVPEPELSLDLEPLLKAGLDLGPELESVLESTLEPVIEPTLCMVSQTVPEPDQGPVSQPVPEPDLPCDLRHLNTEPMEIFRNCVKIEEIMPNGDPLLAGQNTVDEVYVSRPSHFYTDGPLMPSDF
# UniProt Q9Y5M8: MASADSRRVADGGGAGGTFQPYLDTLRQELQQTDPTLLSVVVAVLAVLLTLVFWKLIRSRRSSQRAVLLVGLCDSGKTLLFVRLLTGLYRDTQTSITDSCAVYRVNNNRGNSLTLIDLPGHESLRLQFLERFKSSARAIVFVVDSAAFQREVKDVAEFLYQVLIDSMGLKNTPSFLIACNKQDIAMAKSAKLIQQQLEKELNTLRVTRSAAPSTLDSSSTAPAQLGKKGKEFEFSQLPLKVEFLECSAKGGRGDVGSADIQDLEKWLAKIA
# UniProt O95793: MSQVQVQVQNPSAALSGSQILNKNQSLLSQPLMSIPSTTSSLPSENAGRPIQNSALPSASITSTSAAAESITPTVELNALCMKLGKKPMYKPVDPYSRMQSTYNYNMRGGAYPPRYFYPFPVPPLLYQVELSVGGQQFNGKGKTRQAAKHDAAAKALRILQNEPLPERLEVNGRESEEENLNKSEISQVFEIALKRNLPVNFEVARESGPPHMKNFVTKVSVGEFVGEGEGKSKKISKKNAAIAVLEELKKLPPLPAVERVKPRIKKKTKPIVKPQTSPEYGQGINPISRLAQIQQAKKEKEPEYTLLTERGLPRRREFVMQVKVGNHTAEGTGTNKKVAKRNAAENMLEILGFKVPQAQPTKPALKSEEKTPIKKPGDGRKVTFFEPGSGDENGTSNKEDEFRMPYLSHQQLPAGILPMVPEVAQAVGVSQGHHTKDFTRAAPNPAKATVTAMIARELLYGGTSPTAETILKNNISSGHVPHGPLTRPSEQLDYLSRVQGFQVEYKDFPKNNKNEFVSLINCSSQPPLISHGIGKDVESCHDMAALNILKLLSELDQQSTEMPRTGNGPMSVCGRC
# UniProt Q16629: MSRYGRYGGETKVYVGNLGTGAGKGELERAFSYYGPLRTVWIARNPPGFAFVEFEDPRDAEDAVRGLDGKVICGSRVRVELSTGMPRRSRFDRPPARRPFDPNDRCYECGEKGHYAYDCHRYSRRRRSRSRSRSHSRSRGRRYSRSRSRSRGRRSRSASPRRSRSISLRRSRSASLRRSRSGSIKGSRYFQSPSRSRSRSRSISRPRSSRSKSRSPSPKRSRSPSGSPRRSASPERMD
# UniProt O43815: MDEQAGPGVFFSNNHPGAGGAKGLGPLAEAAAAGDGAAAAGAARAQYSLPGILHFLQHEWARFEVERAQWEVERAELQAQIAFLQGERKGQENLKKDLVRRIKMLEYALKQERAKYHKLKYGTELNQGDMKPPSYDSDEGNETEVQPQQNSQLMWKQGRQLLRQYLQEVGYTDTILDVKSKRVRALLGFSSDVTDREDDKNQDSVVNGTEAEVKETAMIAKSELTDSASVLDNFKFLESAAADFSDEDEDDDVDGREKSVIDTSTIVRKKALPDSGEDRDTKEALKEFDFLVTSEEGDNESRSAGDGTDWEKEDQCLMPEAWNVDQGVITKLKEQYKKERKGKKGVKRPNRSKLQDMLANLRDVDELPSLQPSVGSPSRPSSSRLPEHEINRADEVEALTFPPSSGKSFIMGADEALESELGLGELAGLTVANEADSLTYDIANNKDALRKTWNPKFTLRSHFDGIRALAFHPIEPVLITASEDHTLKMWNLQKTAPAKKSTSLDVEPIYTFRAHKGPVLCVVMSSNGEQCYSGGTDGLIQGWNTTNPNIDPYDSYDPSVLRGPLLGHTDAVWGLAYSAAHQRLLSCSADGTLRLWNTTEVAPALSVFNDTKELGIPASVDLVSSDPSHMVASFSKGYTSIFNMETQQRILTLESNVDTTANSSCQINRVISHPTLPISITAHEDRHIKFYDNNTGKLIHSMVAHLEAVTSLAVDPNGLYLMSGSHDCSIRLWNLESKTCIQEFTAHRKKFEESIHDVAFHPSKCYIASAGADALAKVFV
# UniProt Q8N1F8: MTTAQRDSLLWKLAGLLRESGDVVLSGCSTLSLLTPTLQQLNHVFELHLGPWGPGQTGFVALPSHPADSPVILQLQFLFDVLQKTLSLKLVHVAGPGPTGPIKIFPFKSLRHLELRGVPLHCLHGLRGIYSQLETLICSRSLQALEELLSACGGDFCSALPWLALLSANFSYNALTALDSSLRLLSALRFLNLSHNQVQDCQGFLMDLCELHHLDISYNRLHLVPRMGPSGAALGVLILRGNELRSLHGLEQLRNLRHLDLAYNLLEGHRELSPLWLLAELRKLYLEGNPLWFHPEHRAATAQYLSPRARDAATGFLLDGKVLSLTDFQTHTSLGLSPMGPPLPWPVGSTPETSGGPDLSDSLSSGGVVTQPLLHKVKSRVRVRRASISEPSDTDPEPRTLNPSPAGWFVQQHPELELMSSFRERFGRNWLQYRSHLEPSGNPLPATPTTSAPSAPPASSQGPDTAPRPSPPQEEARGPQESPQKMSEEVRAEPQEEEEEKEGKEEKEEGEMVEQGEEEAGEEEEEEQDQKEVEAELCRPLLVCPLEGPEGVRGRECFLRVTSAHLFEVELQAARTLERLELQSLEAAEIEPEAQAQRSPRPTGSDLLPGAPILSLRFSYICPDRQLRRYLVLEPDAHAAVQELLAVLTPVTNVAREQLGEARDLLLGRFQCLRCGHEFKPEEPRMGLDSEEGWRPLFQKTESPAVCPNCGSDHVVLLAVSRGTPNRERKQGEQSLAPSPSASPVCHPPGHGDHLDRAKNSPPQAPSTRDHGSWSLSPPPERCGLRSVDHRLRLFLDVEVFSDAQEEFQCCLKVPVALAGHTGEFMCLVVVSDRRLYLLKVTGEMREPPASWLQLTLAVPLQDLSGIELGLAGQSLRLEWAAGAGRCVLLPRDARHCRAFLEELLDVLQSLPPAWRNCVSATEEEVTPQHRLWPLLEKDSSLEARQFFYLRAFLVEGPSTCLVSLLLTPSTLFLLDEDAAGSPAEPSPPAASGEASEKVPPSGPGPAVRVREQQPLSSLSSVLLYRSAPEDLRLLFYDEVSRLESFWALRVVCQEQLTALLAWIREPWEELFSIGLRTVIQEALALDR
# UniProt O75494: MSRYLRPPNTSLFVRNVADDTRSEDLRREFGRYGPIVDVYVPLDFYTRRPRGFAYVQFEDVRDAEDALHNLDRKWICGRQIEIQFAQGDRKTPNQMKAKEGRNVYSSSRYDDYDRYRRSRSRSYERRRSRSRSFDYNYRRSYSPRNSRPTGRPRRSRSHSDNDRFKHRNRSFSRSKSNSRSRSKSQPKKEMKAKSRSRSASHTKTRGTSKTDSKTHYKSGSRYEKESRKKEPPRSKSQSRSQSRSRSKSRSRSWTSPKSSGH
# The other results are listed elsewhere or left out.
# Compound: Cc1cc(ccc1-c1ccccc1)C(=O)N1CCCN(CC1)C(=O)CCl [compound 10]
# Assay: probe-labelled cysteine peptide fold change vs DMSO (competition) (log2 fold change); higher = less target engagement (more negative = stronger competition)
# Conditions: 50 µM; THP-1; incubation time: 4 h
# 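Further: competitive profiling in live THP-1 cells: cysteine peptides tagged with an iodoacetamide desthiobiotin (IA-DTB) probe, intensity after compound treatment relative to DMSO-treated cells.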
row,Target,probe-labelled cysteine peptide fold change
1,SRRT_Q9BXP5_490_ECELSPGVNR (UniProt Q9BXP5),0.218
2,STX12_Q86Y82_29_DFSSIIQTCSGNIQR (UniProt Q86Y82),0.0626
3,SYMPK_Q92797_686_KYCEDESR (UniProt Q92797),0.412
4,STK24_Q9Y6E0_415_GAIYLAEEACPGISDTMVAQLVQR (UniProt Q9Y6E0),0.111
5,SUPT6H_Q7KZ85_796_DHPVFCALVNGEGEVTDFLR (UniProt Q7KZ85),0.374
6,STK17B_O94768_334_SSCNGTCGDREDK (UniProt O94768),-0.0928
7,SUGP2_Q8IX01_970_VCLIQEPK (UniProt Q8IX01),0.112
8,STAT2_P52630_71_ATMLFFHFLDQLNYECGR (UniProt P52630),0.391
9,STXBP3_O00186_48_LLASCCK (UniProt O00186),-0.763
10,SRPRB_Q9Y5M8_246_VEFLECSAK (UniProt Q9Y5M8),0.0703
11,SUGT1_Q9Y2Z0_88_GICEYHEK (UniProt Q9Y2Z0),-0.0656
12,STAU1_O95793_541_DVESCHDMAALNILK (UniProt O95793),-0.0308
13,SUN1_O94901_657_CSETYETK (UniProt O94901),-0.151
14,SRSF7_Q16629_119_GHYAYDCHR (UniProt Q16629),0.341
15,SUCLG1_P53597_172_LIGPNCPGVINPGECK (UniProt P53597),0.0544
16,SWAP70_Q9UH65_40_VLSHNLCTVLK (UniProt Q9UH65),-0.000772
17,SRRT_Q9BXP5_412_DAAGLECK (UniProt Q9BXP5),0.224
18,STAT3_P40763_251_QQIACIGGPPNICLDR (UniProt P40763),-0.332

# Quoted from the listing:
# Under probe-labelled cysteine peptide fold change, SRRT_Q9BXP5_412_DAAGLECK (UniProt Q9BXP5) is entered as 0.224
# Under probe-labelled cysteine peptide fold change, SYMPK_Q92797_686_KYCEDESR (UniProt Q92797) is entered as 0.412
# Under probe-labelled cysteine peptide fold change, STK17B_O94768_334_SSCNGTCGDREDK (UniProt O94768) is entered as -0.0928

# Remaining list, next part

row,Target,probe-labelled cysteine peptide fold change
1,STRN_O43815_316_EDQCLMPEAWNVDQGVITK (UniProt O43815),-0.374
2,STRN_O43815_740_TCIQEFTAHR (UniProt O43815),0.00131
3,SRRM2_Q9UQ35_1480_SECDSSPEPK (UniProt Q9UQ35),-0.131
4,STK39_Q9UEW8_525_LASGCDGSEIPDEVK (UniProt Q9UEW8),0.0413
5,SURF4_O15260_32_LCLISTFLEDGIR (UniProt O15260),0.533
6,STRN_O43815_765_CYIASAGADALAK (UniProt O43815),-0.216
7,SRRT_Q9BXP5_412_DAAGLECKPRPLHK (UniProt Q9BXP5),-0.391
8,STIP1_P31948_339_KCQQAEK (UniProt P31948),-0.271
9,STK11IP_Q8N1F8_710_TESPAVCPNCGSDHVVLLAVSR (UniProt Q8N1F8),0.299
10,SSRP1_Q08945_200_ADVIQATGDAICIFR (UniProt Q08945),-0.0752
11,SUMF1_Q8NBK3_365_CAADRLPTMD (UniProt Q8NBK3),-0.241
12,ST14_Q9Y5Y6_268_SFDLASCDER (UniProt Q9Y5Y6),-1.09
13,SRSF10_O75494-5_149_KPNCSWNTQYSSAYYTSR (UniProt O75494),-0.514
14,STT3B_Q8TCJ2_40_HGHHGPGAQCAHK (UniProt Q8TCJ2),-1
15,STK11IP_Q8N1F8_538_EVEAELCRPLLVCPLEGPEGVR (UniProt Q8N1F8),-0.129
16,SUZ12_Q15022_494_IDVSINECYDGSYAGNPQDIHR (UniProt Q15022),0.302
17,SUPT6H_Q7KZ85_990_AIAHPYSQALIQYVCGLGPR (UniProt Q7KZ85),0.126
18,STK25_O00506_357_SQCLSTLVRPVFGELK (UniProt O00506),0.00207
